Some of the results follow.
System: T1, CTL2-GFP (C. trachomatis L2/434/Bu, GFP-expressing)
T1 construct: L2/434/Bu, GFP-expressing
Set-up: species or system HeLa; Intracellular C. trachomatis growth in HeLa cells, bulk GFP fluorescence relative to DMSO
Settings: bulk GFP, single well; 28.5 h, 10 µM; inhibitor

In order of falling “% of control remaining” value:
1. COc1ccc(C(=O)NC(CC(=O)O)c2ccc(OC)cc2)cc1 (stereo not shown) [CBK266188]  193.402%
2. Cc1c(C(=O)NC(C)c2cc3ccccc3o2)cnn1C (stereo not shown) [CBK283074]  173.858%
3. CN(C)C(=O)c1cc(-c2cccc(N(C)C)c2)cnc1NCC1CC1 [CBK076333]  166.275%
4. CC(C)Nc1nccnc1-c1cccnc1 [CBK037054]  165.204%
5. O=C(CSc1ncnc2c1oc1ccccc12)NC1CCCCC1 [CBK287396]  160.204%
6. CC(=O)[C@H]1C[C@@H](CC(=O)Nc2ccc(Cl)nc2)C1(C)C [CBK091338]  154.999%
7. Cn1nc(NC(=O)c2ccco2)c2c(F)cccc21 [CBK057774]  154.852%
8. CCOc1cccc(-c2cn3ccnc3c(NC3CC3)n2)c1 [CBK066736]  151.426%
9. CCOc1cccc(-c2cncc(N(C)CCN(C)C)n2)c1 [CBK065977]  150.235%
10. CCOc1ccc2[nH]c(C(=O)N(C)CCN3CCCCC3)c(C)c2c1 [CBK282699]  141.234%
11. Fc1ccc(NC(=S)NNC(=S)Nc2cccc3ccccc23)c(F)c1 [CBK266982]  136.942%
12. CCCN1C(=O)[C@@H]2[C@@H](CCN2C(=O)C(=O)O)N(Cc2cccs2)C1=O [CBK289277]  134.289%
13. CC(=O)NC(Cc1c[nH]c2ccccc12)C(=O)N(C)Cc1cnn(C)c1 (stereo not shown) [CBK305274]  128.944%
14. COc1cc(Nc2cc(-c3ccc4c(c3)OCO4)ncn2)cc(OC)c1OC [CBK090704]  127.781%
15. O=C1CNC(=O)C2(C/C=C/C[C@H]3COCC[C@@H]3N1)CCN(Cc1ccc(Cl)cn1)CC2 [CBK292132]  126.954%
16. CC1CCc2c(sc(NC(=O)c3cnccn3)c2C(N)=O)C1 (stereo not shown) [CBK265466]  125.019%
17. Cn1c(CO)nnc1[C@H]1C[C@@H](NC(=O)CCc2ccc(F)cc2F)C1 [CBK306796]  122.833%
18. CN(Cc1ccccc1)CC(O)c1ccc2c(c1)CCCN2C(=O)c1ccccc1F (stereo not shown) [CBK286278]  122.156%
19. COc1ccccc1C(=O)N1CCN(C(=O)CN2CCCC2)CC1 [CBK024836]  121.866%
20. COc1cc(C(=O)N2CCC3(CC2)CC(=O)c2cc(CN4CCOCC4)ccc2O3)cc(OC)c1C [CBK169182]  121.752%
21. O=C(Nc1nc2ccccc2s1)c1cc([N+](=O)[O-])ccc1Cl [CBK072428]  120.297%
22. FC(F)(F)c1ccc(Sc2cccs2)nc1 [CBK115236]  118.95%
23. COc1ccc(CNC(=O)c2nc(-c3ccccn3)no2)cc1 [CBK287877]  118.807%
24. CCOC(=O)c1ccc(N/C=C(\C#N)c2nc(-c3cc4ccccc4oc3=O)cs2)cc1 [CBK262356]  118.066%
25. CCn1cnnc1CNC(=O)N1CCCN(Cc2cccs2)CC1 [CBK305882]  116.564%
26. O=C(CCS(=O)(=O)c1nc(-c2ccccc2)cc(C(F)(F)F)n1)Nc1ccc(Cl)cc1Cl [CBK268717]  116.387%
27. O=[N+]([O-])c1ccc(-c2nc(NCc3cccnc3)c3ccccc3n2)cc1 [CBK264788]  116.309%
28. NC1=NNC2=C(c3cccc(Cl)c3)NNN12 [CBK093661]  112.615%
29. COc1ccccc1C1(NC(=O)CCn2nccc2C)CCCC1 [CBK283628]  110.976%
30. CCOC(=O)C(NC(=O)c1cc[nH]c(=O)c1)c1cccc(C)c1C (stereo not shown) [CBK304174]  110.739%
31. CN(C)C(=O)c1cccc(CNc2ncnc3c2cnn3CCC#N)c1 [CBK305955]  106.949%
32. CN1CCCC(Cc2cc(-c3ccccc3)no2)(C(=O)N(C)C)C1 (stereo not shown) [CBK281674]  106.27%
33. Fc1cccc(COc2nc3ccccc3n3nnnc23)c1 [CBK288198]  105.473%
34. CCn1cc(S(=O)(=O)Nc2cccc(CCCC(=O)O)c2)cn1 [CBK304717]  104.87%
35. CN(C)CC(=O)N1CCN(c2cncc(-c3ccc(O)cc3)n2)CC1 [CBK126921T]  102.655%
36. c1cncc(CCNc2nccnc2-c2cccnc2)c1 [CBK037380]  99.2629%
37. Cc1nc(NS(=O)(=O)/C=C/c2ccccc2)sc1C(=O)O [CBK045553]  97.3873%
38. Cc1ccc(SCc2ccc(C(=O)Nc3ccccc3C(=O)N3CCCC3)cc2)cc1 [CBK268217]  89.8746%
39. COc1ccc(S(=O)(=O)Nc2cccc(C(=O)Nc3ccc(F)cc3)c2)cc1OC [CBK038982]  83.624%
40. O=C(c1ccc(F)cc1)N1C[C@H](c2ccsc2)[C@H]2CN(Cc3cccs3)CC[C@H]21 [CBK285636]  75.9274%

Reference: PMC12040169 (PLOS Biology, 2025)
